Data: the M2OR odorant receptor database
Residue numbers refer to the chain shown, from its start. Only a part is listed here, and it is no random draw. The calls were merged from several studies; some rest on single wells. The list shows a part of the results.

Chains of the proteins cited; added tags and fusions are not shown. Chains listed by the source or under a name are the forms on record and can include a tag or linker.
OR7D4, as listed by the source: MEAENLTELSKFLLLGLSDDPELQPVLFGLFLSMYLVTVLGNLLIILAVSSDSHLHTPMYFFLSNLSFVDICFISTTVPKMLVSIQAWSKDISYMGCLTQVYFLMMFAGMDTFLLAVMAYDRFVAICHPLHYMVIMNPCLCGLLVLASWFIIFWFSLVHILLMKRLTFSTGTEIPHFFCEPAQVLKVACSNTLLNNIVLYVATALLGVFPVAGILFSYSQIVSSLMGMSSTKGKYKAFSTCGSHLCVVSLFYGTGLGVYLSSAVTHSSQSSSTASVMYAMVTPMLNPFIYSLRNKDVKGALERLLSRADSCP

Assays:
Details in all cases: stereoisomer not certain
OR7D2 = tested on: T1, OR7D2
T1 sequence (whole entry): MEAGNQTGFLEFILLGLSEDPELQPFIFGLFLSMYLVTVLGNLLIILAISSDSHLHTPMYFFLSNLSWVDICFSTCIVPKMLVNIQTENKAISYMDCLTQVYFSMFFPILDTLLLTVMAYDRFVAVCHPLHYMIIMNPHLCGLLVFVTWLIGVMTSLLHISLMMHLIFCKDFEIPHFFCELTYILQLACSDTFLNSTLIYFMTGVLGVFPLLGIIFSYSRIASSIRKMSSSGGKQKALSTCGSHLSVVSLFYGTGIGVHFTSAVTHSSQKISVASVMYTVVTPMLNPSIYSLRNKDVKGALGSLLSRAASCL
Method in brief: (§1)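 Assay methods differ from source to source, frequently being transient luciferase assays in mammalian cell lines. For each receptor–molecule pair, the label responsive (active) applies when the original authors judged the measured signal statistically different from baseline, and non-responsive (inactive) applies otherwise.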

OR7D4 (Homo sapiens) = target: T2, OR7D4 (Homo sapiens) (UniProt Q8NG98)
T2 sequence (whole entry): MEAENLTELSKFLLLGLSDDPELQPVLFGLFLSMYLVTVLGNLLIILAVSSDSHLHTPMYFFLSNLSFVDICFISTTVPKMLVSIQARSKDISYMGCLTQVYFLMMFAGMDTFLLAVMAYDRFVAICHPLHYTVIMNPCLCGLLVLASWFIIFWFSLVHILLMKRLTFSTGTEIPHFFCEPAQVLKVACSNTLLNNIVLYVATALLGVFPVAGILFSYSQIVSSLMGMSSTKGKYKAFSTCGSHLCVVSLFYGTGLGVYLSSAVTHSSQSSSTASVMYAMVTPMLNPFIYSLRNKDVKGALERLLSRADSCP
Method in brief: as §1

OR7D4 = tested on: T3, OR7D4
T3 sequence (whole entry): T2 sequence (whole entry) with R88W, T133M
Method in brief: as §1

OR7G1 (Homo sapiens) = target: T4, OR7G1 (Homo sapiens) (UniProt Q8NGA0)
T4 sequence (whole entry): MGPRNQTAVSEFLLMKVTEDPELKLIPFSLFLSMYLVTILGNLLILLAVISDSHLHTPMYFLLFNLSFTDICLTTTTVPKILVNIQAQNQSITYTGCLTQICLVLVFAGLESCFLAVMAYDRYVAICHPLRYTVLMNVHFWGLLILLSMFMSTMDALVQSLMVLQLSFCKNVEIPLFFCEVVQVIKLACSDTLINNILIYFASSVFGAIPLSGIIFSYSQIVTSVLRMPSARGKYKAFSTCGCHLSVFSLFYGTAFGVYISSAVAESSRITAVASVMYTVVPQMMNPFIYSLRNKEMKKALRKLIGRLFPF
Method in brief: as §1

OR7G2 (Homo sapiens) = target: T5, OR7G2 (Homo sapiens) (UniProt Q8NG99)
T5 sequence (whole entry): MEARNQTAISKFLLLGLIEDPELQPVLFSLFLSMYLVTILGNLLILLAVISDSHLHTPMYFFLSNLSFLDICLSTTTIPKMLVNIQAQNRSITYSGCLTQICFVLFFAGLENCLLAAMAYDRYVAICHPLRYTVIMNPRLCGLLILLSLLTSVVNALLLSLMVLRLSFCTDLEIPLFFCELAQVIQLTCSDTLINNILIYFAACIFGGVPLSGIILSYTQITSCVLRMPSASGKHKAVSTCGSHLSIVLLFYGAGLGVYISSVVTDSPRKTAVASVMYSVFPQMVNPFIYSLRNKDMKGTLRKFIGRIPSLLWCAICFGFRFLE
Method in brief: as §1

OR7G2 = tested on: T6, OR7G2
T6 sequence (whole entry): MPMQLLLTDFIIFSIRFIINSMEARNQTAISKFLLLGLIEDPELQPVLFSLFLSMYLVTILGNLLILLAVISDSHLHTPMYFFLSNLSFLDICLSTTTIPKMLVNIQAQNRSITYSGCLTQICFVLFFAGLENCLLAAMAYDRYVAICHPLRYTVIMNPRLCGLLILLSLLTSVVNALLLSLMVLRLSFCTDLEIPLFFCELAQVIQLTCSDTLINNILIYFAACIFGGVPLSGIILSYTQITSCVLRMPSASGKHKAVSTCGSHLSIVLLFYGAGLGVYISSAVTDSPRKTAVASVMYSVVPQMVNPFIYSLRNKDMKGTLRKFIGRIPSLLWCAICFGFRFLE
Method in brief: as §1

OR7G3 (Homo sapiens) = target: T7, OR7G3 (Homo sapiens) (UniProt Q8NG95)
T7 sequence (whole entry): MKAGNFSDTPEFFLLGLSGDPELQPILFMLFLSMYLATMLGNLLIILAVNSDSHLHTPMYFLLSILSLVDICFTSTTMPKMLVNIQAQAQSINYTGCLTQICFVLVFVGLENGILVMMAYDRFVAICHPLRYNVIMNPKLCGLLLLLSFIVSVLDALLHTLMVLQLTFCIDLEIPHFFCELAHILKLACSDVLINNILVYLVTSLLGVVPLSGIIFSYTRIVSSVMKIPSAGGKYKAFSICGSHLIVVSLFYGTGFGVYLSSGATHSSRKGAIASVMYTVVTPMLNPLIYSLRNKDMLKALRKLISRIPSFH
Method in brief: as §1

OR8A1 = tested on: T8, OR8A1
T8 sequence (whole entry): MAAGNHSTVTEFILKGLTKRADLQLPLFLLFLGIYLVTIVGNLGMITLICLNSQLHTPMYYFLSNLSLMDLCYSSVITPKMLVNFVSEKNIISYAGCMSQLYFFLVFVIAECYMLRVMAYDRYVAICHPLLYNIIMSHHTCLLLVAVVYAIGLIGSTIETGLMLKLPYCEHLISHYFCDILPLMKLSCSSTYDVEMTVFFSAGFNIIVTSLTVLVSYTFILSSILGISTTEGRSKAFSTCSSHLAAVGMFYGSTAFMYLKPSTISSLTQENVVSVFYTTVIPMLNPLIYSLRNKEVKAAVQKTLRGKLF
Method in brief: as §1

OR8B12 (Homo sapiens) = target: T9, OR8B12 (Homo sapiens) (UniProt Q8NGG6)
T9 sequence (whole entry): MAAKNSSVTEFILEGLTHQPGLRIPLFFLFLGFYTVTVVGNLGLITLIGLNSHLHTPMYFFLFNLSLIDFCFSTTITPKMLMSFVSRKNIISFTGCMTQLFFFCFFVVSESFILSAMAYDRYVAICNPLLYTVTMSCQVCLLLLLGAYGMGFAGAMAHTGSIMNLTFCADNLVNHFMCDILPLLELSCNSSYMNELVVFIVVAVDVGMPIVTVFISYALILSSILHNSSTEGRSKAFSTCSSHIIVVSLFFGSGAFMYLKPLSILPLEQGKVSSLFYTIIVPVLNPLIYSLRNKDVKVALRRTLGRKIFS
Method in brief: as §1

OR8B2 (Homo sapiens) = target: T10, OR8B2 (Homo sapiens) (UniProt Q96RD0)
T10 sequence (whole entry): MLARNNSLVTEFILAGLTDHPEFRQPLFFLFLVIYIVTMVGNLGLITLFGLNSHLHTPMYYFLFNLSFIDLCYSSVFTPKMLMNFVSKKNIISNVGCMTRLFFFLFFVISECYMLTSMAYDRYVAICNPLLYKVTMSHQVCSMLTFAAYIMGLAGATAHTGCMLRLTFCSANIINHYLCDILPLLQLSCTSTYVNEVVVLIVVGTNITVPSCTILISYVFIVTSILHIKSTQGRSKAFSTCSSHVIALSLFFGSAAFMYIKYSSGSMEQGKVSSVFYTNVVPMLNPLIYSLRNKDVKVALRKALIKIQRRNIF
Method in brief: as §1

Measured: odorant receptor agonist call

CCCCOC(C)=O
inactive: OR7D2 | OR7D4 (Homo sapiens) | OR7D4 | OR7G1 (Homo sapiens) | OR7G2 (Homo sapiens) | OR7G2 | OR7G3 (Homo sapiens) | OR8A1 | OR8B12 (Homo sapiens) | OR8B2 (Homo sapiens)

CCC(C)=O
inactive: OR7D2 | OR7D4 (Homo sapiens) | OR7D4 | OR7G1 (Homo sapiens) | OR7G2 (Homo sapiens) | OR7G2 | OR7G3 (Homo sapiens) | OR8A1 | OR8B12 (Homo sapiens) | OR8B2 (Homo sapiens)

CCOc1cc(C=O)ccc1O
inactive: OR7D4 (Homo sapiens) | OR7D4

CS
inactive: OR7D2 | OR7D4 (Homo sapiens) | OR7D4 | OR7G1 (Homo sapiens) | OR7G2 (Homo sapiens) | OR7G2 | OR7G3 (Homo sapiens) | OR8A1 | OR8B12 (Homo sapiens) | OR8B2 (Homo sapiens)
